From US9364449B2, “Peptoid and synthetic oligomers, pharmaceutical compositions and methods of using same” (New York University, priority 2011, dated 2016)
Part of at least one peptide drawing is inferred or uncertain, most often the ends. No end group written: not given here.

The chains behind the UniProt entries cited, without tags or fusion partners. Residues count along the entry.
UniProt P05067, 672-711: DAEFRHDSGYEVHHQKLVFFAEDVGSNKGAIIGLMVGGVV

Biological target: T1, Aβ1-40 (Homo sapiens, UniProt P05067)
T1 construct: made in house; host or cells: chemical solid-phase peptide synthesis (L-amino acids), RP-HPLC purified
Experiment: Thioflavine-T aggregation assay, Aβ1-40 aggregated in the presence of compound
Assay type: biochemical
Details: 100 μM Aβ1-40 (1:1 compound:Aβ ratio)
Method: Peptoid modified derivatives of the KLVFFA (SEQ ID NO: 4) sequence were tested using Thioflavine-T aggregation assay to determine whether or not they are capable of forming fibrils themselves. […] In these treatment experiments, 100 μM Aβ40 or Aβ42 was mixed with 1-100 μM of the investigated compound and incubated up to 14 days. […] They were incubated alone or in the presence of peptoid modified derivatives of KLVFFA (SEQ ID NO: 4) sequence at concentrations of 1-100 μM. In addition, peptoid modified derivatives of KLVFFA (SEQ ID NO: 4) sequence were incubated alone as indicated above at the concentration of 100 μM. At the indicated intervals, samples containing 15 μg of incubated peptides were added to 1 mL of 50 mM/L glycine, pH 9.2 and 2 μM/L of Thioflavin-T (Sigma Chemical, Co.; St. Louis, Mo.). Fluorescence was measured at excitation 435 nm and emission 485 nm in a Hitachi F-2000 fluorescence spectrophotometer. A time scan of fluorescence was performed and three values after the decay reached a plateau (280, 290, 300 seconds) were averaged. The background fluorescence of 40 μl of Tris buffer added to 2 μM/L of Thioflavin-T solution was subtracted. Samples were run in duplicate. Differences in amount of fibrils formed by different peptides at particular time points were evaluated by one-way ANOVA followed by Tukey post hoc test.

GKLVFFA-NH2 [GKLVFFA, reference compound]
concentration at which an effect on Aβ1-40 aggregation could be demonstrated: 100 µM
